Screening data, single-dose tests

Chains of the proteins cited; added tags and fusions are not shown. Residues count along the entry.
UniProt A4I591, 1-473: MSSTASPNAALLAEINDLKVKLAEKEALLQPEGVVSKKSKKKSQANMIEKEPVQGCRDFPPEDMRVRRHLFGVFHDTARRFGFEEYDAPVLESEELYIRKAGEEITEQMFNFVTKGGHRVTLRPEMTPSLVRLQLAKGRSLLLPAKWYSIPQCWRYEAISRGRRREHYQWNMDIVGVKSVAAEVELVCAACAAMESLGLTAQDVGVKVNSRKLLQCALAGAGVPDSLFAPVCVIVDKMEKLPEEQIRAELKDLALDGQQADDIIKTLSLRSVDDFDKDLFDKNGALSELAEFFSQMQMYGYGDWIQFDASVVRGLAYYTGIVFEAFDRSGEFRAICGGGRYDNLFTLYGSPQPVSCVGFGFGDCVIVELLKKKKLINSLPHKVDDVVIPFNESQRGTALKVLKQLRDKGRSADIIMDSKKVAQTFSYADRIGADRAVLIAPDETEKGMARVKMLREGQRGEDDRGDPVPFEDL
UniProt Q8IDJ8, 1-583: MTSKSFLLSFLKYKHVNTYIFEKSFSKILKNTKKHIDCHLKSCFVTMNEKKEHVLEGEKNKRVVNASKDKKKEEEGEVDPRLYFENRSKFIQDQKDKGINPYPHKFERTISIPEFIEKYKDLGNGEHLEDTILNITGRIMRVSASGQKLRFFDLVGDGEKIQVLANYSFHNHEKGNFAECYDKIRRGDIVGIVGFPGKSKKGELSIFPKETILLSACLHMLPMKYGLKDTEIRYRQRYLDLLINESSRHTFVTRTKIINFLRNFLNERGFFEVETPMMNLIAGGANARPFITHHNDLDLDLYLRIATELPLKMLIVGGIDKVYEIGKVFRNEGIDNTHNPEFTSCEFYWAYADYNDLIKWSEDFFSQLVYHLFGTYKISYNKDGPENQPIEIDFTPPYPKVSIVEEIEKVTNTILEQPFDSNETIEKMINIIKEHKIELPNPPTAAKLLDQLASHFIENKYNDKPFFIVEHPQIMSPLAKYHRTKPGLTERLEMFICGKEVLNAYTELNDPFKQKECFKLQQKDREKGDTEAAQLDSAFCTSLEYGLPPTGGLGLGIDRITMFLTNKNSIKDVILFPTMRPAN

From ChEMBL document CHEMBL3988442, “University of Dundee, Small-Polar-MMV Screening Library” (2021).

LiHisRS: 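Histidine-tRNA ligase, Leishmania infantum (UniProt A4I591). Enzyme assay of histidyl-tRNA synthetase; the read-out is not stated. Compounds at 30 µM. Higher reads as stronger inhibition (inferred: compounds with an IC50 in retests scored well above the rest). The assay is labelled LdHisRS but filed under L. infantum. Of about 69,000 compounds tested this way, about 410 (0.6%) reached 50% or more in at least one test.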
PfKRS1: 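Enzyme assay of the cytosolic lysyl-tRNA synthetase in 384-well plates, read by luminescence. Target: Lysine-tRNA ligase, Plasmodium falciparum 3D7 (UniProt Q8IDJ8). Compounds at 30 µM. Higher reads as stronger inhibition, judged from the few compounds that gave an IC50. Of about 69,000 compounds tested this way, about 49 (0.071%) reached 50% or more in at least one test.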

Results are given as percent effect. The record does not define 0% and 100%; most values in the screen are far below 50% and negative numbers occur (in some assays of this library far below -100). Compounds were drawn at random from those tested, without regard to their results.

| compound | LiHisRS | PfKRS1 |
|---|---|---|
| `NC(=O)COc1cccc(C(=O)NCc2ccc(Cl)s2)c1` | 0% | 3.068% |
| `CC(C)C(O)C1CCN(c2ccnc(C(=O)NCc3ccco3)c2)CC1` (centres undefined) | 26.67% | 4.977% |
| `COCCn1ccnc1C1CCN(C(=O)c2cccc(COC)n2)CC1` | 15.49% | -0.1477% |
| `Cc1cnc(N2CCC3(C2)CN(S(=O)(=O)C2CC2)C3)nc1` | 18% | 7.454% |
| `COCCNC(=O)[C@H]1C[C@@H]2CCN(c3ncccn3)C[C@H]2O1` | 8.333% | 3.704% |
| `CCN(Cc1nonc1C)C(=O)Cn1nc(C(F)(F)F)cc1C1CC1` | 12.07% | 1.592% |
| `Cn1cc(C2COC3(CCN(C(=O)c4cccn4C)CC3)C2)cn1` (centres undefined) | 18% | 3.336% |
| `Cc1c(CS(C)(=O)=O)cccc1NCC1CCCCC1` | -6.494% | 3.043% |
| `CC(=O)NCc1ccc(-c2ccccc2C(=O)O)cn1` | 9.396% | -0.304% |
| `Cn1cc(CN2C[C@H]3CCC[C@@]3(COCC3CC3)C2)cn1` | -0.9009% | 3.405% |
| `c1snnc1CN1C[C@H]2CCC[C@@H](CN3CCOCC3)[C@H]2C1` | 17.11% | 3.886% |
| `COc1c(C2CCCN2C(=O)c2cscn2)c(C)nn1C` (centres undefined) | -1.739% | -0.7073% |
| `CC(C)n1cc(CN2CCCN(C(=O)c3nccnc3N)CC2)cn1` | 5.769% | -1.168% |
| `Cc1ccncc1C(=O)N1C[C@H]2CN(CC3CCC3)C[C@@]2(C(=O)O)C1` | -1.639% | 2.643% |
| `CN(CC1=CCCN(Cc2cccc(C#N)c2)C1)C(=O)c1ccco1` | 24.44% | 5.53% |
| `CC(C)(C)c1nc(CN(Cc2ccccc2Cl)C2CCCC2)no1` | 12.86% | 2.527% |
| `N[C@H]1CN(C(=O)c2ccc3[nH]c(=O)c(=O)[nH]c3c2)C[C@@H]1c1ccccc1` | -10.84% | -1.72% |
| `CC(c1nc(C2CC2)no1)N1CCN(CCc2ccncc2)CC1` (centres undefined) | 5% | 3.096% |
| `O=C(NN1CCCc2ccccc21)c1c[nH]c(=O)[nH]1` | -3.03% | 0.06095% |
| `O=C(c1ccc2ccc(N3CCN(CC4CC4)CC3)n2c1)N1CCCO1` | 17.65% | 2.47% |
| `CC(=O)N1CCC2(CC1)[C@@H]1CN(Cc3cccnc3)C[C@@H]1C(=O)N2C` | 21.36% | 2.111% |
| `Cn1cc(-c2c(C#N)c(N)nc3c2CCc2[nH]ccc2-3)cc1C#N` | 68.38% | 1.592% |
| `COc1ccc(C(=O)NCC(=O)N(Cc2ccsc2)C2CC2)cc1OC` | 1.613% | -5.387% |
| `Cc1nn(C)c(C)c1C1CCCN1C(=O)c1ccc2c(c1)OCCO2` (centres undefined) | 8.929% | -0.1838% |
| `CNC(=O)c1cc2c(nc1N(C)C)CCN(S(=O)(=O)CC(C)C)CC2` | 12.62% | -2.996% |
| `COc1ncnc(N(C)C)c1NC(=O)Cc1c[nH]c2ccc(F)cc12` | 11.76% | 3.015% |
| `CC1COc2ccccc2N1C(=O)c1cscn1` (centres undefined) | 22.58% | 6.897% |
| `CN(C)C1CCC2(CCN(Cc3nccn3C)CC2)c2ccccc21` (centres undefined) | 24.53% | 4.284% |
| `CS(=O)(=O)N1CCC2(CCCN(Cc3ccccn3)C2)CC1` | -1.316% | -3.124% |
| `O=S(=O)(Cc1ccon1)N1CCN(c2ccncc2Cl)CC1` | 8.108% | 5.663% |
| `CCc1ccsc1C(=O)NC(C#N)CC(C)C` (centres undefined) | 12.94% | 1.819% |
| `c1cn(CCn2cnnc2)c(-c2cc3n(n2)CCCNC3)n1` | 19.3% | 3.213% |
| `CCC(C)(C)NC(=O)Nc1nnc(-c2ccccn2)s1` | 8.065% | 3.847% |
| `CC(c1nc(C(C)(C)C)no1)N1CCN(Cc2ccco2)CC1` (centres undefined) | 14.91% | 1.68% |
| `O=C(NCCOCCO)c1cnc(-c2ccccc2)nc1O` | 13.89% | 2.577% |
| `CC(C)c1nc(C2CCCN2Cc2nccn2CC(F)(F)F)no1` (centres undefined) | 10.71% | 1.308% |
| `CC(=O)N1C[C@@H]2CN(Cc3cccnc3)CCO[C@@H]2C1` | 12.73% | 4.327% |
| `CN1CCCN(C(=O)c2csc(-c3ccc(C(F)(F)F)cc3)n2)CC1` | 19.67% | 6.613% |
| `CCOc1ncccc1NC(=O)N1CCC(CN2CCOCC2)CC1` | 12.84% | 0.8305% |
| `N#CCCN(Cc1ccco1)C(=O)CCCc1ccccc1` | 0% | -0.1212% |
| `COc1ccc(CCN2CCc3c(nc(C4CC4)n3C)C2)cc1` | 10.96% | 3.605% |
| `COCCN(Cc1ccoc1)C(=O)c1ccc(Cl)s1` | 5.479% | 1.226% |
| `CCc1cc(=O)[nH]c(NC2CCN(S(=O)(=O)c3ccccc3)CC2)n1` | 9.396% | -0.8173% |
| `O=c1n(Cc2ccc(C(F)(F)F)cc2)nc2ncccn12` | 21.74% | 2.979% |
| `COCCN1CCC1c1cc(NC2CCCC2)nc(C)n1` (centres undefined) | 10% | -0.834% |
| `COc1ccccc1OCC(=O)Nc1ncccc1Cl` | 12.5% | -2.474% |
| `O=C(NCCN1CCCCC1)c1scnc1Cl` | 22.73% | 7.301% |
| `CCc1cc(CN(C)C(=O)c2nnc(CN(C)C)o2)on1` | 7.527% | 2.416% |
| `CCN1C(=O)CCC12CCN(C(=O)c1ccco1)CC2` | -5.769% | 6.024% |
| `CN(c1ccc(C#N)cn1)C1CCCN(Cc2noc(C3CC3)n2)C1` (centres undefined) | 17.2% | 0.8466% |
| `COc1nc(C)c(C(=O)N2CCc3[nH]nc(Cc4ccccc4)c3C2)s1` | 5.714% | -3.601% |
| `CNC(=O)NC(=O)CCN1CCCC1c1nc(C2CCCCC2)co1` (centres undefined) | 6.25% | 3.907% |
| `CC(Nc1ccc(CC(=O)N(C)C)cc1)C(=O)N(C)CCC#N` (centres undefined) | 19.3% | 4.938% |
| `O=C(NC1CCCNC1)c1cc(COc2cccc(C(F)(F)F)c2)[nH]n1` (centres undefined) | 12.12% | 8.213% |
| `O=C(CN1CCCC(c2ccc(C(=O)O)cc2)C1)NC1CC1` (centres undefined) | 22.86% | 5.689% |
| `CCOc1cc(NC(=O)N(C)Cc2ncnn2C)ccc1C` | 3.226% | 6.443% |
| `CCCn1cc(-c2cc(-c3cnc(OC)nc3)c(C#N)c(N)n2)c(C)n1` | 16.39% | 3.097% |
| `COCCN1CCc2cc(C(=O)NCC3CC3)c(NC(C)C)nc2CC1` | 13.21% | 0.261% |
| `CC(C)CC(=O)N(C)Cc1nc(C(F)(F)F)cs1` | 1.064% | 2.394% |
| `CC(C)[C@@H]1CN(c2ccc(C(F)(F)F)cn2)C[C@H]1NS(C)(=O)=O` | -3.922% | -2.91% |
| `O=C(c1cc(C2CC2)on1)N1CC[C@]2(C[C@H](Oc3cccnc3)CO2)C1` | 21.57% | 2.588% |
| `CNc1nc(CNC(=O)Nc2cccc(-c3ncc(C)o3)c2)cs1` | 5.505% | -1.772% |
| `COCC(c1cccc(C(F)(F)F)c1)N(C)C(=O)c1cnccn1` (centres undefined) | 23.21% | -1.11% |
| `CCc1cnc(CN(C(C)=O)C2CCN(Cc3nccn3C)C2)o1` (centres undefined) | 14.68% | -0.8305% |
| `Cc1oc(-c2ccc(Cl)cc2)nc1C(=O)NC1=NCCS1` | 10.34% | 0.3008% |
| `Fc1ccccc1NCc1nc2n(n1)CCCCC2` | 12.5% | 4.131% |
| `CCN1N=C(C(=O)N2CCCC(c3nc(C)c(C)s3)C2)CCC1=O` (centres undefined) | 12.17% | 1.57% |
| `COCCCC(=O)Nc1[nH]nc(-c2ccncc2)c1C` | 17.46% | 2.664% |
| `CC(NC(=O)c1ccnn1C)c1ccc(OCC2CC2)c(F)c1` (centres undefined) | 5.66% | -6.367% |
| `CN(C)CCNC(=O)c1noc2c1CN(C(=O)N(C)C)CC2` | 15.79% | 1.131% |
| `CN(CCCN1CCCC1)[C@@H]1c2ccccc2C2(CCNCC2)[C@H]1O` | 9.434% | -0.07861% |
| `CC(=O)N(CCc1nc(-c2cc(C(N)=O)co2)cs1)C(C)C` | 6.667% | 1.891% |

The first 9 entries again:

| compound | LiHisRS | PfKRS1 |
|---|---|---|
| `NC(=O)COc1cccc(C(=O)NCc2ccc(Cl)s2)c1` | 0% | 3.068% |
| `CC(C)C(O)C1CCN(c2ccnc(C(=O)NCc3ccco3)c2)CC1` (centres undefined) | 26.67% | 4.977% |
| `COCCn1ccnc1C1CCN(C(=O)c2cccc(COC)n2)CC1` | 15.49% | -0.1477% |
| `Cc1cnc(N2CCC3(C2)CN(S(=O)(=O)C2CC2)C3)nc1` | 18% | 7.454% |
| `COCCNC(=O)[C@H]1C[C@@H]2CCN(c3ncccn3)C[C@H]2O1` | 8.333% | 3.704% |
| `CCN(Cc1nonc1C)C(=O)Cn1nc(C(F)(F)F)cc1C1CC1` | 12.07% | 1.592% |
| `Cn1cc(C2COC3(CCN(C(=O)c4cccn4C)CC3)C2)cn1` (centres undefined) | 18% | 3.336% |
| `Cc1c(CS(C)(=O)=O)cccc1NCC1CCCCC1` | -6.494% | 3.043% |
| `CC(=O)NCc1ccc(-c2ccccc2C(=O)O)cn1` | 9.396% | -0.304% |